# Measurements taken from patent publication US20200040071A1 (HUB BIOTECH, published 2020).
# No constants are given. Whether binding was seen depends on the method and setting. Some entries that bind do so weakly or less than the wild type.
# T1: endothelial monocyte activating polypeptide II (EMAP II) (UniProt Q12904)
# T1 sequence (looked up): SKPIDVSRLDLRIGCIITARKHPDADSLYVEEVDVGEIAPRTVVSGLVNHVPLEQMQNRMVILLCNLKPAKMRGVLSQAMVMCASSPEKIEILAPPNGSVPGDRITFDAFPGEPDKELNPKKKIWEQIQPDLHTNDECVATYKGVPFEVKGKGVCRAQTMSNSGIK
# B1: BAP015-hum03 antibody (antibody, V domains shown)
# VH: EVQLVQSGAEVKKPGATVKISCKVSGYTFTSYTMHWVRQAPGQGLEWMGYINPSSGFTNYNQKFKDRVTISADKSISTAYLQWSSLKASDTAMYYCASRFAYWGQG
# VL: AIQLTQSPSSLSASVGDRVTITCKASQDVSTAVAWYQQKPGKAPKLLIYSASYRYTGVPSRFSGSGSGTDFTFTISRLEPEDFAVYYCQQHYSIPYTFGQG
# notes: The printed variable regions end at FGQG (light) and WGQG (heavy), so they seem to stop short of the end of framework 4; also called anti-EMAP II parent antibody; control group
# B2: BAP072-EMAP II-1 antibody (antibody, V domains shown)
# VH: EVQLVQSGAEVKKPGATVKISCKVSGYTFTSYTMHWVRQAPGQGLEWMGYINPRSGFTNYRQKFKHRVTISADKSISTAYLQWSSLKASDTAMYYCFSRFAYWGQG
# VL: AIQLTQSPSSLSASVGDRVTITCKASQDVSTAVAWYQQKPGKAPKLLIYSASYRYWGVPSRFSGSGSGTDFTFTISRLEPEDFAVYYCQQHYSIPYTFGQG
# B3: BAP072-EMAP II-3 antibody (antibody, V domains shown)
# VH: EVQLVQSGAEVKKPGATVKISCKVSGYTFTSYTMHWVRQAPGQGLEWMGYINPRSGFTNYRQKFKHRVTISADKSISTAYLQWSSLKASDTAMYYCFSRFAYWGQG
# VL: AIQLTQSPSSLSASVGDRVTITCKASQDVSTAVAWYQQKPGKAPKLLIYSASYGYTGVPSRFSGSGSGTDFTFTISRLEPEDFAVYYCQQHYSIPYTFGQG
# notes: also called BAP072-EMAP 11-3
# B4: BAP072-EMAP II-4 antibody (antibody, V domains shown)
# VH: EVQLVQSGAEVKKPGATVKISCKVSGYTFTSYTMHWVRQAPGQGLEWMGYTNPSSGFTNYTQKFKDRVHISADKSISTAYLQWSSLKASDTAWYYCASRFAYWGQG
# VL: AIQLTQSPSSLSASVGDRVTITCKASQDVSTAVAWYQQKPGKAPKLLIYSASYGYTGVPSRFSGSGSGTDFTFTISRLEPEDFAVYYCQQHYSIPYTFGQG
# What was measured:
# [1] = target: T1, endothelial monocyte activating polypeptide II (EMAP II); assay: ELISA, EMAP II coated at 1 ug/ml, anti-IgG-HRP detection, absorbance at 450 nm
# [2] = target: T1, endothelial monocyte activating polypeptide II (EMAP II); assay: ELISA, plate coated with EMAP II antigen (1 µg/ml), detection with anti-IgG-HRP, OD 450 nm
# [3] = target: T1, endothelial monocyte activating polypeptide II (EMAP II); assay: SPR (Reichert SR7500DC), EMAP II protein fixed to a PEG chip (ligand printed on the sheet as hAIMP1), antibody as analyte at 0-40 nM
Binder,binding [1],binding [2],binding [3]
B1,binds,binds,binds
B2,,binds,binds
B3,,binds,
B4,,binds,
